# Experiments:
# Type in all cases: cell-based
# [1] = system: WM115; experiment: Cell viability (CellTiter-Blue, 72 h), WM115 melanoma cells; conditions: WM115, 1% FBS
# Description: (§1) The following cell lines were tested in this example: Lung Cancer (A549, NCI-H460); Pancreatic cancer (PANC1, Mia-Pa-Ca-2); Melanoma (WM115, A375); Ovarian cancer (OVCAR3, SKOV3); Gastric cancer (MKN45, HGC-27); Renal cancer (ACHN) and Bladder Cancer (RT112).
# (§2) Each tumour cell line was maintained in vitro in RPMI 1640+10% heat inactivated FBS and 2 mM L-glutamine (growth media) at 37° C. in 5% CO2 and humidified conditions. The cells were harvested, washed, re-suspended into growth medium and counted. The cells were re-suspended into assay media (RPMI 1640+5% heat inactivated FBS+ and 2 mM L-glutamine) at 4×10^4 cells/ml (dependent upon cell type) and plated into the middle 240 wells of 384 well tissue culture plates (Corning CellBind, black-wall plates) 25 μl/well aliquots; 50 μl of growth media was aliquoted into the outer wells. There were 3 plates for each cell line.
# (§3) The plates were incubated overnight at 37° C., in 5% humidified CO2.
# (§4) The phytocannabinoid test compounds were prepared in 100% DMSO vehicle at a stock concentration of 20 and 40 mM.
# (§5) Starting with the 20 mM stock in DMSO, this was serially diluted (2 fold) in DMSO in a 96-well plate, to 20 (no dilution), 10, 5, 2.5, 1.25, 0.625, 0.315, 0.157 and […]. Following this, 10 ul of each compound dilution was diluted into 990 ul of 1% (v/v) FBS media in a deep well block making the final concentrations of 200, 100, 50, 25, 12.5, 6.25, 3.125, 1.56 and 0.79 μM (2× final assay concentrations and 1% DMSO).
# (§6) An equal volume of each cannabinoid in the combination (stock concentration 40 mM) was mixed together to make a stock of 20 mM of each cannabinoid in DMSO. This was serially diluted (2 fold) in DMSO in a 96-well plate, to 20 (no dilution), 10, 5, 2.5, 1.25, 0.625, 0.315, 0.157 and […]. Following this, 10 ul of each combination dilution was diluted into 990 ul of 1% (v/v) FBS media in a deep well block making the final concentrations of 200, 100, 50, 25, 12.5, 6.25, 3.125, 1.56 and 0.79 μM (2× final assay concentrations and 1% DMSO).
# (§7) Cisplatin (stock of 1 mg/ml=3.33 mM in water) was diluted in 1% FBS media to give a stock concentration of 1 mM. This was then diluted in 1% FBS media from the stock solution to 200 μM, then serially diluted (3-fold) in 1% FBS media to 200 (no dilution), 66.66, 22.22, 7.41, 2.47, 0.82, 0.27, 0.09, 0.03 μM (2× final assay concentrations; no DMSO).
# (§8) The plates were incubated for 72 h at 37° C. in 5% humidified CO2. To develop the plates, at 72 h, 10 μl of CellTiter-Blue™ reagent was added to each test/blank well.
# (§9) The plates were incubated at 37° C., 5% humidified CO2. Fluorescence was measured using a Flex II Station plate reader (570 nm excitation wavelength, 600 nm emission wavelength, 590 nm cut-off) after 3 h.
# (§10) The phytocannabinoid compounds CBD, CBGA, CBG, CBDA, THCV and THC were tested on a panel of lung (A549, NCI-H460), pancreatic (PANC1, Mia-Pa-Ca-2), melanoma (WM115, A375), ovarian (OVCAR3, SKOV3), gastric (MKN45, HGC-27), renal (ACHN) and bladder (RT112) cancer cell lines according to the protocol for 72 h in media containing 1% FBS.
# (§11) The IC50 values for each phytocannabinoid and combination of CBD with the other phytocannabinoids was calculated for each cell line. The raw data values expressed in relative fluorescent units were normalised to the vehicle for each individual plate and any reduction in fluorescence indicated a decrease in viability.
# (§12) This calculation was as described in Example 1 above.
# [2] = system: HGC-27; experiment: Cell viability (CellTiter-Blue, 72 h), HGC-27 gastric cancer cells; conditions: HGC27 cells, 1% FBS
# Description: as §1, §2, §3, §4, §5, §6, §7, §8, §9, §10, §11, §12
# [3] = system: MKN45; experiment: Cell viability (CellTiter-Blue, 72 h), MKN45 gastric cancer cells; conditions: 1% FBS
# Description: as §1, §2, §3, §4, §5, §6, §7, §8, §9, §10, §11, §12
# [4] = system: ACHN; experiment: Cell viability (CellTiter-Blue, 72 h), ACHN renal cancer cells; conditions: 1% FBS
# Description: as §1, §2, §3, §4, §5, §6
# (§13) Taxotere SOC was prepared in 100% DMSO to give a stock concentration of 10 mM. This was diluted in DMSO from the stock solution to 200 μM, then serially diluted (3-fold) in DMSO to 200 (no dilution), 66.66, 22.22, 7.41, 2.47, 0.82, 0.27, 0.09, 0.03 μM. 10 ul of each of the taxotere dilutions was diluted in 990 ul of 1% (v/v) FBS media making the final concentrations of 2, 0.67, 0.22, 0.074, 0.0247, 0.0082, 0.0027 0.0009, 0.0003 μM (2× final assay concentrations and 1% DMSO).
# as §8, §9, §10, §11, §12
# [5] = system: PANC-1; experiment: Cell viability (CellTiter-Blue, 72 h), PANC-1 pancreatic cancer cells; conditions: PANC-1, 1% FBS
# Description: as §1, §2, §3, §4, §5, §6
# (§14) Gemcitabine SOC was prepared in 100% DMSO to give a stock concentration of 20 mM. This was then serially diluted (3 fold) in DMSO in a 96-well plate, to 20 (no dilution), 6.6, 2.2, 0.741, 0.247, 0.082, 0.027, 0.009 and 0.003 mM. Following this, 10 ul of each dilution was further diluted into 990 ul of 1% (v/v) FBS media making the final concentrations of 200 (no dilution), 66.66, 22.22, 7.41, 2.47, 0.82, 0.27, 0.09, 0.03 μM (2× final assay concentrations and 1% DMSO).
# as §8, §9, §10, §11, §12
# [6] = system: A375; experiment: Cell viability (CellTiter-Blue, 72 h), A375 melanoma cells; conditions: A375, 1% FBS
# Description: as §1, §2, §3, §4, §5, §6, §7, §8, §9, §10, §11, §12
# [7] = system: A549; experiment: Cell viability (CellTiter-Blue, 72 h), A549 lung cancer cells; conditions: A549, 1% FBS
# Description: as §1, §2, §3, §4, §5, §6, §13, §8, §9, §10, §11, §12
# [8] = system: NCI-H460; experiment: Cell viability (CellTiter-Blue, 72 h), NCI-H460 lung cancer cells; conditions: NCI-H460, 1% FBS
# Description: as §1, §2, §3, §4, §5, §6, §13, §8, §9, §10, §11, §12
# [9] = system: SKOV3; experiment: Cell viability (CellTiter-Blue, 72 h), SKOV3 ovarian cancer cells; conditions: 1% FBS
# Description: as §1, §2, §3, §4, §5, §6, §7, §8, §9, §10, §11, §12
# [10] = system: Mia-Pa-Ca-2; experiment: Cell viability (CellTiter-Blue, 72 h), Mia-Pa-Ca-2 pancreatic cancer cells; conditions: MIA-PA-CA2, 1% FBS
# Description: as §1, §2, §3, §4, §5, §6, §14, §8, §9, §10, §11, §12
smiles,measurement,setting,value
"CCCCCc1cc(O)c2c(c1)OC(C)(C)[C@@H]1CCC(C)=C[C@@H]21 [THC, Tetrahydrocannabinol, reference compound]",m (shape parameter of dose effect curve),[1],6.44
same,m (shape parameter of the curve),[2],6.12
same,m (shape parameter of the curve),[3],13.26
same,m (shape parameter of the curve),[4],13.12
same,m (shape parameter of dose effect curve),[5],6.63
same,m (shape parameter of dose effect curve),[6],4.67
same,m (shape parameter of dose effect curve),[7],13.60
same,m (shape parameter of dose effect curve),[8],5.34
same,m (shape parameter of the curve),[9],12.17
same,m (shape parameter of dose effect curve),[10],5.72

# Source: US9962341B2, “Active pharmaceutical ingredient (API) comprising cannabinoids for use in the treatment of cancer” (GW Pharma Limited, priority 2014, dated 2018)
